Measured values taken from patent EP0815110B1.
Some of these results come from one statement about several compounds together.

Protein sequences, listed by entry. Tags and fused reporters are not part of them. Lines headed by an entry give the natural chain unless they say otherwise; changes in a name come on top. Residues count along the entry.
UniProt A6K8N6, entry or part of it: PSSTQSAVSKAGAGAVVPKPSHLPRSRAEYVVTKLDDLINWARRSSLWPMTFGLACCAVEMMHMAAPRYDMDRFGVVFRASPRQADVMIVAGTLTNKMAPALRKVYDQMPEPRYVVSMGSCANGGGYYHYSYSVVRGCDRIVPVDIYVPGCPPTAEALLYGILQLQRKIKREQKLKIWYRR
UniProt P03889: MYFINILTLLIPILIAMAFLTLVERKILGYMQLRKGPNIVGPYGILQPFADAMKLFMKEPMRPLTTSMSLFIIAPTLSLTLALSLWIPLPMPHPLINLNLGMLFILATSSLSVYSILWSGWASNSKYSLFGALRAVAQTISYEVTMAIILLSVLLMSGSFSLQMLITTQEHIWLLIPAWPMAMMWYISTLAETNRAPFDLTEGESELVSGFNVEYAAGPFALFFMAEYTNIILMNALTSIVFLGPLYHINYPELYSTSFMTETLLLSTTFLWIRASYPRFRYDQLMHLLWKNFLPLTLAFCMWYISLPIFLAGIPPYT
UniProt Q641Y2, 34-463: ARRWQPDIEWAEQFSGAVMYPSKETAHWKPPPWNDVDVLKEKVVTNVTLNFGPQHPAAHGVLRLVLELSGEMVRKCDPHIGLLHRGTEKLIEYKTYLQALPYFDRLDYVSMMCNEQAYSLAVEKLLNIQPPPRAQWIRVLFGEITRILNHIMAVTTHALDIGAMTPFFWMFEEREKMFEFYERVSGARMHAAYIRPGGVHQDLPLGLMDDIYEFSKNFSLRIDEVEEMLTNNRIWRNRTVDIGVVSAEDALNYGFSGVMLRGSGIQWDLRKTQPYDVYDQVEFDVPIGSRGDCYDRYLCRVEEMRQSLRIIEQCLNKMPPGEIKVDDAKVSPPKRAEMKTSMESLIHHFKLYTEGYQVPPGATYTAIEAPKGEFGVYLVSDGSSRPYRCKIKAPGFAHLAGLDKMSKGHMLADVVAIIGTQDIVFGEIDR

Biological target: NADH-Ubichinon-1-Reduktase (Rattus norvegicus, UniProt A6K8N6+P03889+Q641Y2)
Test: NADH-ubiquinone-1 reductase (complex I) test, spectrophotometric at 340 nm
Type: biochemical, Ratte
Conditions: result in words; comparison with TaClo

SMILES | Hemmwirkung gegenüber Komplex I der mitochondrialen Atmungskette
CN1CCc2c([nH]c3ccccc23)C1C(Cl)(Cl)Cl (racemic) [N-Me-TaClo] | noch wesentlich stärker wirkende Spezies
ClC(Cl)(Cl)C1NCCc2c1[nH]c1ccccc21 (racemic) [TaClo, 1-Trichlormethyl-1,2,3,4-tetrahydro-β-carbolin] | sehr starke Hemmwirkung
ClC(Cl)=C1NCCc2c1[nH]c1ccccc21 [Dichlormethylen-TaClo] | noch wesentlich stärker wirkende Spezies
